Screen size: about 52,000 sequences; about 210 (0.4%) were called active.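 The calls were made as follows: active = gene whose silencing raises cell survival under the drug, median off-target-corrected z-score across its silencing RNAs 2 or more; inactive = the rest.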 Some of the results follow.

The assay is described as follows: Resistance to Poly (ADP-Ribose) Polymerase inhibitor: Gene Identification via Genome-wide siRNA Screen. The settings on record: mouse BRCA2 R2336H ES cells, olaparib, CellTiter-Glo viability; stronger effect = higher value. In outline:
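Genome-wide siRNA screen (3 siRNAs/gene, 20 nM) in mouse ES cells carrying hypomorphic BRCA2 R2336H; olaparib 500 nM added 48 h post-transfection, CellTiter-Glo viability 72 h later. Normalized to plate-median negative control; MAD z-scores, gene median, seed-adjusted.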
Consider CCCUAUGAGCAAAUCACAUTT against Ppp3cc, for which the z-score was inactive: -0.197.
To CCACUUUAAAGGCUCUUCUTT against Hist1h3g belongs inactive: 0.623.
Then “CCAUCAAUGUGCAGAAAUCTT against 9030612M13Rik”, with inactive: 1.49; and GCGACAACUGUGAUAUACCTT against Liph, with inactive: -0.143.
Consider GGACAUGGAACUGGAUGAATT against C2ta, for which the z-score is inactive: -0.943.
Then GGCACCAGGUAAAGCAGUATT against Mitf, with inactive: 2.72; and GGAAAGAUGAGGAAUGUUCTT against Tbx5, with inactive: 0.076; and “GGUCCUAACAUCCAGAGUGTT against B830013J05Rik”, with inactive: -1.51.
Then “GGCAACACUGUUUUAACCGTT against D430020F16”, with inactive: -0.974; and CCAGAACCGUUUGAGGAGATT against Mrpl2, with inactive: -0.416.
To GCUCUUGCUACUUUUUUCUTT against Olfr823 belongs inactive: 0.431.
Regarding GCCAGGAUUGGAUGAAAUATT against Ace2, the z-score is inactive: 0.198.
With “GGUUCUCUACAAAGUAAGUTT against 6030458H05”, the z-score is inactive: -0.272.
CCUCUACUCAAAUUCUUGUTT against Ugt1a2: the z-score was inactive: -0.142.
To GGUACUUUGGAGAUUGUAATT against Rdh14 belongs inactive: -0.931; to “GGGACACUUUCACUUGUUCTT against 1110007A06Rik”, inactive: -0.543.
To GGUCAGAAAUUCUAAGUUGTT against Gpatc2 belongs inactive: 0.495.
Then CCAAGAGCCUCUUAAUUACTT against Syt9, with inactive: -0.71; and GCUAGAGGCUCAAAUACAGTT against BC018222, with inactive: -1.19.
Take GGACUUCAGUAUCAAUUGATT against Serpinb7: the z-score was inactive: 0.355.
Then GGUUUGGUUGAAAUUGAACTT against Smc5l1, with inactive: -0.0777; and GGUGGUGUUUGUCAGCAAATT against Khk, with inactive: -0.404.
To GUUACCUCGUGGAAAGCAUTT against V1ra5 belongs inactive: -0.567; to “GGUAGUCAAGUCGAAAGUATT against 4932411G06Rik”, inactive: -0.38.
Then GGUGGAAGCACUCAAUAAGTT against Pik3cb, with inactive: 0.269.
In the case of “UAUUCUAUCCGAACACCUUTT against 4930549O06”, the z-score was inactive: 1.45.
In the case of “GGAGGAUGCCAAAGAGAACTT against A030007D23Rik”, the z-score is inactive: -0.21.
To GGAACGAUGGAAAUUGUAUTT against Rap1gds1 belongs inactive: -0.352; to “GGUGUUGAAAUAAUUUCUCTT against 1700048E23Rik”, inactive: -0.524.
As for CGGUCUGAUUAAACAAAUUTT against Dpysl4, the z-score is inactive: -0.29.
To “GGAACUGCUGUGCAGUUUUTT against 1810059G22Rik” belongs inactive: 0.909.
Then GUCAUGAGAUUGAAUACAATT against Olfr569, with inactive: -0.572; and “GCAGUUAUGUUAUAGCUGCTT against 2310061F22Rik”, with inactive: 0.874; and CGAAUACUUUGGAAAAUUCTT against Tfb2m, with inactive: 0.094.
For the sequence “GGAAACACCUUCUUCAGCATT against C130060K24Rik”, the z-score is inactive: -1.54.
Then GCAAUGCAAAAGAUGCCCUTT against Chchd7, with inactive: -0.644.
To CCCAACUCAAGCCUCGAAATT against Scpep1 belongs inactive: 0.571.
Then CCUCUCCCUACUGUGAAAUTT against Poldip2, with inactive: 0.0975.
Turning to “GGAAAAAUGGGAGUUUGAATT against 4932423M01Rik”, the z-score was inactive: -0.322.
To GGUUCAAUUCACAGAGCGCTT against BC028768 belongs inactive: -0.373; to GGUUGUGAGUCAGUCUAGUTT against Tia1, inactive: -0.904; to “GGAGUCUUCUGGAUAAACATT against 1110028E10Rik”, inactive: -1.06.
To GGCCAAGAGUAAACAGAAATT against Traip belongs inactive: -0.521; to GGGCUGGUCAUUUACUAAGTT against Cdh22, inactive: 0.524; to “GCUCAAGUGCGAUUGUAAGTT against 2810441C07Rik”, inactive: -0.0952.
To GCCAGACCAAACCCGAAUUTT against Fbl belongs inactive: -2.12.
With CCAGGUUUUUUAACAGAGATT against Hipk1, the z-score was inactive: -0.304.
To CGUGUGGACUUGACAAGAUTT against Cklf belongs inactive: -1.3; to GGAAUUCUGGGAACAAAAGTT against Mina, inactive: -0.546; to “GCUCUCACCCAUGUGACGATT against A930021H16Rik”, inactive: 0.907.
To CCACUUCUACCAUCAUUGATT against AU040320 belongs inactive: 0.417; to GGAUAUUUGUCAAUGGACGTT against Glrx2, inactive: -1.23; to “GGUGCCUUGGGAAAAAGGATT against 2610511O17Rik”, inactive: -1.13.
Then “GCCAGUUAUGAGCAACACCTT against D11Ertd18e”, with inactive: 2.17.
On to GGACAAAGCUAUGUCUUAATT against Treh, for which the z-score was inactive: -1.1.
Then GGAUCUUUUCCAAAGAAAUTT against Dusp10, with inactive: 0.204.
To CUUGUGGGUCUAUGGACGGTT against Olfr1348 belongs inactive: 1.45; to “GGGAAAUUAAAUCUGUUCATT against 4931419K03Rik”, inactive: -1.24; to GGACAAAGACAAAAAGGAUTT against Pole3, inactive: -2.17.
As for GGCAAUUGUCCACAAACUCTT against Smyd5, the z-score is inactive: 0.256.
To GGAAUCAGAGAAAUUGUAATT against Ctsq belongs inactive: 0.0545; to GGAAAGAAACCGUAUAAAUTT against Zfp93, inactive: 0.868; to GGCAUGAUAAGCUUCGAUGTT against Pmm1, inactive: 1.46.
Then CGGCAAACUCAAGAAGCAGTT against BC027663, with inactive: -2.19; and GGUUACUUUGGGAAAGUUGTT against Rpl27a, with inactive: -3.37; and CCCACUUGACUGAAAAGAUTT against Nmnat2, with inactive: -0.869.

Values taken from PubChem BioAssay AID1347423 (Functional Genomics Laboratory (NCATS/FGL), 2020).
